From the supplement of paper PMC8728848
The list shows a part of the results.

Experiments:
Assay in all cases: glycan array binding signal (z-score within array); higher = stronger binding
Settings in all cases: glycan notation: IUPAC condensed, linker removed
[1] = target: Neu5Ac(a2-6)GlcNAc(b1-4)GlcNAc
Outline: (§1)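 Columns mapping to the same glycan were averaged after glycan names were converted to IUPAC-condensed notation. The data come from 3228 arrays in the Consortium for Functional Glycomics database, limited to those with an available protein sequence. Binding is reported as a within-array Z-score averaged across arrays of one protein sequence and across linkers.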

[2] = target: Neu5Ac(a2-6)GlcNAc(b1-4)GlcNAc(b1-4)GlcNAc
Outline: as §1

Neu5Ac(a2-8)Neu5Ac = target: Neu5Ac(a2-8)Neu5Ac
Outline: as §1

[3] = target: Neu5Ac(a2-8)Neu5Ac(a2-3)Gal(b1-3)GalNAc(b1-4)[Neu5Ac(a2-3)]Gal(b1-4)Glc
Outline: as §1

[4] = target: Neu5Ac(a2-8)Neu5Ac(a2-3)Gal(b1-3)GalNAc(b1-4)[Neu5Ac(a2-8)Neu5Ac(a2-3)]Gal(b1-4)Glc
Outline: as §1

[5] = target: Neu5Ac(a2-8)Neu5Ac(a2-3)Gal(b1-4)Glc
Outline: as §1

[6] = target: Neu5Ac(a2-8)Neu5Ac(a2-3)Gal(b1-4)GlcNAc
Outline: as §1

[7] = target: Neu5Ac(a2-8)Neu5Ac(a2-3)[Gal(b1-3)GalNAc(b1-4)]Gal(b1-4)Glc
Outline: as §1

[8] = target: Neu5Ac(a2-8)Neu5Ac(a2-3)[GalNAc(b1-4)]Gal(b1-4)Glc
Outline: as §1

[9] = target: Neu5Ac(a2-8)Neu5Ac(a2-8)Neu5Ac
Outline: as §1

[10] = target: Neu5Ac(a2-8)Neu5Ac(a2-8)Neu5Ac(a2-3)Gal(b1-4)Glc
Outline: as §1

[11] = target: Neu5Ac(a2-8)Neu5Ac(a2-8)Neu5Ac(a2-3)[Gal(b1-3)GalNAc(b1-4)]Gal(b1-4)Glc
Outline: as §1

[12] = target: Neu5Ac(a2-8)Neu5Ac(a2-8)Neu5Ac(a2-3)[GalNAc(b1-4)]Gal(b1-4)Glc
Outline: as §1

[13] = target: Neu5Ac(a2-8)Neu5Ac(a2-8)Neu5Ac(a2-8)Neu5Ac(a2-3)[GalNAc(b1-4)]Gal(b1-4)Glc
Outline: as §1

[14] = target: Neu5Ac(a2-8)Neu5Gc(a2-3)Gal(b1-4)GlcNAc
Outline: as §1

[15] = target: Neu5Ac(b2-6)Gal(b1-4)GlcNAc
Outline: as §1

Neu5Ac(b2-6)GalNAc = target: Neu5Ac(b2-6)GalNAc
Outline: as §1

[16] = target: Neu5Ac9Ac(a2-3)Gal(b1-3)GlcNAc
Outline: as §1

[17] = target: Neu5Ac9Ac(a2-3)Gal(b1-4)GlcNAc
Outline: as §1

[18] = target: Neu5Ac9Ac(a2-6)Gal(b1-4)GlcNAc
Outline: as §1

[19] = target: Neu5Gc(a2-3)Gal(b1-3)GlcNAc
Outline: as §1

[20] = target: Neu5Gc(a2-3)Gal(b1-3)[Fuc(a1-4)]GlcNAc
Outline: as §1

Neu5Gc(a2-3)Gal(b1-4)Glc = target: Neu5Gc(a2-3)Gal(b1-4)Glc
Outline: as §1

[21] = target: Neu5Gc(a2-3)Gal(b1-4)GlcNAc
Outline: as §1

[22] = target: Neu5Gc(a2-3)Gal(b1-4)GlcNAc(b1-3)Gal(b1-4)GlcNAc(b1-2)Man(a1-3)[Neu5Gc(a2-3)Gal(b1-4)GlcNAc(b1-3)Gal(b1-4)GlcNAc(b1-2)Man(a1-6)]Man(b1-4)GlcNAc(b1-4)GlcNAc
Outline: as §1

[23] = target: Neu5Gc(a2-3)Gal(b1-4)[Fuc(a1-3)]GlcNAc
Outline: as §1

[24] = target: Neu5Gc(a2-6)Gal(b1-4)GlcNAc
Outline: as §1

Neu5Gc(a2-6)GalNAc = target: Neu5Gc(a2-6)GalNAc
Outline: as §1

[25] = target: Neu5Gc(a2-8)Neu5Ac(a2-3)Gal(b1-4)GlcNAc
Outline: as §1

[26] = target: Neu5Gc(a2-8)Neu5Gc(a2-3)Gal(b1-4)GlcNAc
Outline: as §1

[27] = target: Neu5Gc(a2-8)Neu5Gc(a2-3)Gal(b1-4)GlcNAc(b1-3)Gal(b1-4)GlcNAc
Outline: as §1

[28] = target: Neu5Gc(a2-8)Neu5Gc(a2-6)Gal(b1-4)GlcNAc
Outline: as §1

[29] = target: Neu5Gc(b2-6)Gal(b1-4)GlcNAc
Outline: as §1

B1: R2-fiber (Pseudomonas aeruginosa), Q9S576 (protein)
chain: HHHHHHKVAKDLVVSLAYQVRTEDGVLVDESPVSAPLDYLHGHGSLISGLETALEGHEVGDKFDVAVGANDAYGQYDENLVQRVPKDVFMGVDELQVGMRFLAETDQGPVPVEITAVEDDHVVVDGNHMLAGQNLKFNVEVVAIREATEEELAHGHVHGAHDHHHDHDHDGCCGGHGHDHGHEHGGEGCCGGKGNGGCGCHENLYFQGVTAGMALAATDIPGLDASKLVSGVLAEQRLPVFARGLATAVSNSSDPNTATVPLMLTNHANGPVAGRYFYIQSMFYPDQNGNASQIATSYNATSEMYVRVSYAANPSIREWLPWQRCDIGGSFTKEADGELPGGVNLDSMVTSGWWSQSFTAQAASGANYPIVRAGLLHVYAASSNFIYQTYQAYDGESFYFRCRHSNTWFPWRRMWHGGDFNPSDYLLKSGFYWNALPGKPATFPPSAHNHDVGQLTSGILPLARGGVGSNTAAGARSTIGAGVPATASLGASGWWRDNDTGLIRQWGQVTCPADADASITFPIPFPTLCLGGYANQTSAFHPGTDASTGFRGATTTTAVIRNGYFAQAVLSWEAFGR
**Q.** With B1 as the binder, how does the “glycan array binding signal (z-score)” value [1] read?
**A.** -0.379

**Q.** And the “glycan array binding signal (z-score)” value [2]?
**A.** -0.658

**Q.** And the “glycan array binding signal (z-score)” value (Neu5Ac(a2-8)Neu5Ac)?
**A.** 0.33

**Q.** What about the “glycan array binding signal (z-score)” value [3] of the same binder?
**A.** -0.504

**Q.** And the “glycan array binding signal (z-score)” value [4]?
**A.** -0.61

**Q.** And the “glycan array binding signal (z-score)” value [5]?
**A.** -0.432

**Q.** What about the “glycan array binding signal (z-score)” value [6] of the same binder?
**A.** 0.548

**Q.** And the “glycan array binding signal (z-score)” value [7]?
**A.** -0.829

**Q.** And the “glycan array binding signal (z-score)” value [8]?
**A.** 0.721

**Q.** What about the “glycan array binding signal (z-score)” value [9] of the same binder?
**A.** -0.074

**Q.** What about the “glycan array binding signal (z-score)” value [10] of the same binder?
**A.** -0.462

**Q.** What about the “glycan array binding signal (z-score)” value [11] of the same binder?
**A.** 0.353

**Q.** And the “glycan array binding signal (z-score)” value [12]?
**A.** 0.432

**Q.** And the “glycan array binding signal (z-score)” value [13]?
**A.** 0.115

**Q.** What about the “glycan array binding signal (z-score)” value [14] of the same binder?
**A.** -0.244

**Q.** And the “glycan array binding signal (z-score)” value [15]?
**A.** -0.048

**Q.** What about the “glycan array binding signal (z-score)” value (Neu5Ac(b2-6)GalNAc) of the same binder?
**A.** -0.935

**Q.** What about the “glycan array binding signal (z-score)” value [16] of the same binder?
**A.** -1

**Q.** And the “glycan array binding signal (z-score)” value [17]?
**A.** -1.16

**Q.** What about the “glycan array binding signal (z-score)” value [18] of the same binder?
**A.** -0.75

**Q.** And the “glycan array binding signal (z-score)” value [19]?
**A.** -0.167

**Q.** And the “glycan array binding signal (z-score)” value [20]?
**A.** -0.038

**Q.** What about the “glycan array binding signal (z-score)” value (Neu5Gc(a2-3)Gal(b1-4)Glc) of the same binder?
**A.** 0.214

**Q.** And the “glycan array binding signal (z-score)” value [21]?
**A.** -0.701

**Q.** And the “glycan array binding signal (z-score)” value [22]?
**A.** 0.21

**Q.** And the “glycan array binding signal (z-score)” value [23]?
**A.** -0.059

**Q.** And the “glycan array binding signal (z-score)” value [24]?
**A.** -0.324

**Q.** What about the “glycan array binding signal (z-score)” value (Neu5Gc(a2-6)GalNAc) of the same binder?
**A.** -0.199

**Q.** What about the “glycan array binding signal (z-score)” value [25] of the same binder?
**A.** -0.698

**Q.** And the “glycan array binding signal (z-score)” value [26]?
**A.** -0.87

**Q.** What about the “glycan array binding signal (z-score)” value [27] of the same binder?
**A.** -0.193

**Q.** And the “glycan array binding signal (z-score)” value [28]?
**A.** -0.075

**Q.** And the “glycan array binding signal (z-score)” value [29]?
**A.** -0.155
